PubChem BioAssay AID1259308 – NCATS – 2017

- Assay: 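Genes whose loss raises luciferase production in HEK293 cells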 (primary screen)
- Cell system: human HEK293 embryonic kidney cells stably expressing firefly luciferase (HEK-CMV-Luc2-Hygro)
- Knock-down reagent: single siRNA against human genes, 0.8 pmol siRNA per well
- Duration: 72 h
- Measurement: 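Luciferase light (ONE-Glo) measured on one replicate plate set and viability (CellTiter-Glo) on the other, scaled to a negative control siRNA, with robust z-scores and luciferase per cell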
- Direction: total luciferase, z-score: higher = more reporter protein produced
- Hit rule: 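Active when the median/MAD z-score for overall luciferase is greater than 3; a gene was taken forward for validation with new siRNAs if at least two of its three siRNAs passed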
- Meaning of the calls: active = raised luciferase; inactive = no rise
The whole screen tested about 59,000 reagents; below is a part drawn at random. In the full data, about 1,510 (2.6%) were called active. 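Calls use total luciferase alone and ignore viability, so some active siRNAs may act by altering cell number.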 The numbers tell different reagents against one gene apart. Not all columns of the deposit are shown.

total luciferase, z-score, by gene and reagent
APOBR: #1 3.31 active; #2 -1.25 inactive; #3 0.633 inactive
PARP16: #1 -1.63 inactive; #2 -0.0643 inactive; #3 -0.288 inactive
SLC39A7: #1 2.54 inactive; #2 1.35 inactive; #3 -1.92 inactive
COQ9: #1 0.813 inactive; #2 1.67 inactive; #3 -0.228 inactive
DNPEP: #1 -1.56 inactive; #2 2.69 inactive; #3 -0.745 inactive
ZFHX3: #1 0.366 inactive; #2 -0.773 inactive; #3 -0.749 inactive
EHD3: #1 2.27 inactive; #2 -0.79 inactive; #3 0.433 inactive
CD200: #1 -2.01 inactive; #2 0.468 inactive; #3 0.275 inactive
FZD4: #1 2.56 inactive; #2 -0.483 inactive; #3 -0.325 inactive
SCT: #1 0.688 inactive; #2 -1.24 inactive; #3 2.27 inactive
REXO1L8P: #1 0.295 inactive; #2 -0.144 inactive; #3 -1.42 inactive
ANO3: #1 -0.968 inactive; #2 -1.22 inactive; #3 0.518 inactive
PDS5A: #1 -1.07 inactive; #2 -0.971 inactive; #3 -1.74 inactive
ZNF417: #1 0.435 inactive; #2 0.316 inactive; #3 -0.153 inactive
S100A13: #1 -1.72 inactive; #2 -0.155 inactive; #3 1.06 inactive
NRXN1: #1 -0.999 inactive; #2 -0.249 inactive; #3 -0.113 inactive
SMAP1: #1 -0.485 inactive; #2 -0.458 inactive; #3 -1.28 inactive
TEX38: #1 -1.14 inactive; #2 -1.46 inactive; #3 3.7 active
FMO1: #1 0.614 inactive; #2 -0.0799 inactive; #3 0.222 inactive

Entries above whose gene name begins with A or a:
total luciferase, z-score, by gene and reagent
APOBR: #1 3.31 active; #2 -1.25 inactive; #3 0.633 inactive
ANO3: #1 -0.968 inactive; #2 -1.22 inactive; #3 0.518 inactive
